{"sequences": {"note": "By UniProt entry, the sequences of proteins in these tests, tags left out. Residues count along the entry.", "UniProt P19525, 1-184": "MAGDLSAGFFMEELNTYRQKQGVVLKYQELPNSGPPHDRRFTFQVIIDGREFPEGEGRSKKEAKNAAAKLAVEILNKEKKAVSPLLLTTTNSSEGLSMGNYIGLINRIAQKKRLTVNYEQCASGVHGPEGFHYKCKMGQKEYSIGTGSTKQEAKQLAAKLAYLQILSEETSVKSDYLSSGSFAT"}, "source": "paper PMC3587421", "about": "“Native Tertiary Structure and Nucleoside Modifications Suppress tRNA’s Intrinsic Ability to Activate the Innate Immune Sensor PKR”", "target": "PKR dsRBD (P20) (UniProt P19525)", "test": "EMSA", "settings": "0.1 mg/mL native yeast tRNAPhe competitor, Hill undetermined; none (unmodified transcript); 25 mM Hepes-KOH pH 7.5, 10 mM NaCl, 5% glycerol, 5 mM DTT, 0.1 mM EDTA, 0.1 mg/mL tRNAPhe or herring sperm DNA; room temperature 10 min; 10% native gel, 0.5x TB, 16 C; recombinant protein; label: 5'-32P", "note": "Construct, isoform or probe ends are uncertain for at least one entry.", "data": [{"sequence": "UUAAGAUGGCAGAGCCCGGUAAUCGCAUAAAACUUAAAACUUUACAGUCAGAGGUUCAAUUCCUCUUCUUAACACCA [T7 mt-tRNALeu WT (monomer)]", "values": [{"measurement": "Kd", "result": "> 20", "unit": "µM"}]}]}
